Measurements published in patent publication US20160340704A1, “METHOD OF MAKING A BENZYLISOQUINOLINE ALKALOID (BIA) METABOLITE, ENZYMES THEREFORE” (VALORBEC SOCIÉTÉ EN COMMANDITE, priority 2014, published 2016).
Where “and” joins values, the source holds several entries; their conditions need not be identical. Equal entries are not always repeated. For some assays here: At least one read-out could not be matched to a standard name with certainty. For some assays here: For at least one compound, name, drawing or mass did not settle the structure. Some results were stated once for a whole list of compounds, not compound by compound.

What was measured:
[1] = Recovery of supplemented BIAs at different pH with yeast expressing no heterologous enzymes; format: physicochemical, Saccharomyces cerevisiae; settings: 5 uM, 16 hours; for total recovery of supplemented BIA at pH 9: TE buffer pH 9.0
[2] = system: scoulerine; experiment: CYP719 substrate affinity test on scoulerine in GC1333 (integrated PsCPR): Ring A / Ring B closure; format: cell-based, Saccharomyces cerevisiae; settings: single CYP719 with PsCPR, 16 hours
Procedure: To broadly identify CYP719 activities on BIAs, a substrate affinity test was performed with the protoberberine BIA scoulerine. CYP719s have been described to form methylenedioxy bridges on BIAs from an alcohol group and a methyl group on adjacent carbons. Two different rings can be made on scoulerine, which can be called “Ring A” and “Ring B”, with the BIA products being called “nandinine” and “cheilanthifoline”, respectively (see FIG. 19). CYP719-catalyzed formation of both Ring A and Ring B of scoulerine (“Ring A-closing activity” and “Ring B-closing activity”) has been identified and published. Certain CYP719 enzymes included in the affinity tests have published ring A and Ring B activities.
Plasmids harboring CYP719s were transformed into either GC1333 containing an integrated PsCPR (FIG. 10A) or GC1316 containing an integrated PsCPR and an integrated PsCFS (FIG. 10B). Strain GC1333, harboring PsCPR integrated into the chromosome, was transformed with pBOT plasmids, with GFP removed, harboring individual CYP719s (CYP719 EX41-105). (See Tables 7-8 below presenting the nature and activity of these CYP719s).
The resulting CYP719-harboring strains (strains SF41-105) were supplemented with scoulerine. After 16 hours, BIAs were extracted and the molar ratio of scoulerine to downstream BIAs was calculated (FIG. 10A).

[3] = system: scoulerine; experiment: Combinatorial test of Ring A- and Ring B-closing CYP719s in GC1270 (PsCPR and TNMT) fed scoulerine; format: cell-based, Saccharomyces cerevisiae; settings: Ring A closer combined with Ring B closer EX54 or EX98, with TNMT, 16 h

c1cc2c(c3c1C[C@H]1c4cc5c(cc4CCN1C3)OCO5)OCO2 [(S)-stylopine]
recovery in cell extract, trend with pH [1]: increased with pH

COc1cc2c(cc1O)[C@@H]1Cc3ccc(OC)c(O)c3CN1CC2 [(S)-scoulerine]
recovery in cell extract, trend with pH [1]: increased with pH
total recovery of supplemented BIA across media (YNB, pH 6 to 9) [1]: remained consistent across YNB to pH 8
total recovery of supplemented BIA at pH 9 [1]: recovery dropped at pH 9

Oc1ccc(CC2NCCc3cc(O)c(O)cc32)cc1O (racemic) [(R,S)-norlaudanosoline]
total recovery of supplemented BIA at pH 9 [1]: no norlaudanosoline was recovered
recovery in cell extract ([1]; across all pHs): 3-5%

B1: EX54: CYP719 from Chelidonium majus, SEQ ID NO: 333 (protein, listed as Chelidonium majus)
chain: MEESFWLVAATVLVVFVVAKLLFRKSSSISTMEWPAGPKTLPIIGNLHQLGGAALHVVLANLAKVYGSVMTIWVGAWRPMIVISDIDKAWEVLVNKSSDYSARSLPEITRIISANWKNIMTSDSGPFWQNLRKGLQGGALSPHNVMSQYQLQERDMQNLIKTMRVEASKNNGRIKPLDHLKQETVRLLSRLIFGQDFNDEKLVVGMHHALDDLVRISGYASLADAFKVAENLPSHKKSIREVHELKRRVENLVRPHIVSNPPTNTYLNFLLSQNFSEDLIISAILEVYDLGVDSTASTTVWALTFLVREQKVQEKLYQEIKNLTGGRSTVKVEEVSKMPYLQAVMKETMRMKPIAPMAIPHTAARETSLMGKKIDKGTVVMVNLYAIHHNPNIFPEPYKFMPERFLHGEEQNGGNIKEMEQSLLPFSAGMRICAGMELGKLQLGFALASLVNAFKWECAADGKLPDLSEDHCFILLMKNPLEAKITPRTH
conversion of scoulerine to the Ring B product cheilanthifoline [2]: over 95%
conversion of supplemented scoulerine to N-methylstylopine [3]: > 98%

B2: EX98: CYP719 from Stylophorum diphyllum, SEQ ID NO: 377 (protein, listed as Stylophorum diphyllum)
chain: MEESFWLVTATVVVVFVIAKLQFRKSSSISTMEWPAGPKTLPIIGNLHQLGGAALHVVLANLAKAYGSVMTIWVGSWRPMIVISDFDKAWEVLVNKSSDYSARSLPEITRIISANWKNIMTSDSGPFWQNLRKGLQSGALSPHNVMSQYQLQERDMQNLIKTMRVEAFKNNGRIKPLDHLKQETVRLLSRLIFGQDFNDEKLVVGMHHALDDLVRISGYASLADAFKFAENLPSHKKSIREVHELKKRVENLVRPHIVSNPPTNTYLNFLQSQNFSEDLIISAILEVYDLGVDSTASTTVWALTFLVRELKVQEKLYQEIKNLTGGRSTVKVEEVSKMPYLQAVMKETMRMKPIAPMAIPHTAARETSLMGKKIDKGTVVMVNLYAIHHNPNIFPEPYKFMPERFLHGEEQNGGNIKEMEQSLLPFSAGMRICAGMELGKLQLGFALASLVNAFKWECAVDGKLPDMSEDHCFILLMKNPLEAKITPRTH
conversion of scoulerine to the Ring B product cheilanthifoline [2]: over 95%
conversion of supplemented scoulerine to N-methylstylopine [3]: > 98%

B3: EX101: CYP719 from Stylophorum diphyllum, SEQ ID NO: 380 (protein, listed as Stylophorum diphyllum)
chain: MESLIDFSNPAKMEELMSNPWIITAITLAVVIIMMTIFRRKSSSMKWPKGPKTLPIIGNMHLFGGTDLHVVLYNIAKVYGNVMTIWIGSWRPVIVISDIERAWEVLVNKSSDYSARDMPEITKLISSDWKTISTSDAGAFWTNLRKGLQNVALSPHNLASQFQFQESDIKKLIETIKEEGAVNNGIVKPLDHLKKAMVRLISRLIFGQDFDNDKYVEGMHHAIEELIRVSGYARLAEAFYYAKYLPSHKKAVRDVEEANRRVQKLVRPFLSLNPPTNTYLHFLRSQNYSEEVIIFAIFEAYLLGVDSTSSTTAWALAFLIREPNVQEKLYQELKNFTVKNGRDMLKVEDINKLPYLQATIKETMRMKPIAPLAIPHKACRDTSLMGSKIDKGTRVMVNIYALHHNEKIWKEPFKFMPERFLQTEGEVNGKAMEQSFLPFSAGMRICAGMELGKLQFNFALANLVNAFKWSCVADGVLPDMSDQLGFVLVMKTPLEARITPRC
conversion of scoulerine to the Ring A product nandinine (Ring A closure) [2]: > 95% and > 98%
conversion of supplemented scoulerine to N-methylstylopine [3]: > 98%

B4: EX50: CYP719 from Coptis japonica, Q948Y1.1, SEQ ID NO: 329 (protein, listed as Coptis japonica)
chain: MEMNPLLVCATVAIVFATTTIIRILFSSSSLPQMKWPSGPRKLPIIGNLHQLGDDVLHVALAKLAKVHGSVMTIWIGSWRPVIVISDIEKAWEVLVNKSADYGARDMPEITKIASASWHTISTSDAGSFWQNVRKGLQSGAMGPLNVAAQNQYQERDMKRLIKAMSDEAANNNGIVKPLDHIKKNTVRLLTRLIFGQAFDDNKFIESMHYEIEDIIRISGYARLAEAFYYAKYLPSHKKAEREAFLVKCRVEELVRPLLSSKPPTNSYLYFLLSQNFEEEVIIFCIFELYLLGVDSTSSTTTWALAYLIREQGAQEKLYQDIRMTLGDVDLVKIEDVNKLKYLQGVVKETMRMKPIAPLAIPHKTAKETTLMGTKVAKGTRIMVNLYALHHNQNIWPDPYKFMPERFLEGETGTAYNKAMEQSFLPFSAGMRICAGMDLGKLQFAFALANLVNAFKWSCVEEGKLPDMGEELSFVLLMKTPLEARIAGRNV
conversion of scoulerine to the Ring A product nandinine (Ring A closure) [2]: > 95%

B5: EX56: CYP719 from Chelidonium majus, SEQ ID NO: 335 (protein, listed as Chelidonium majus)
chain: MLLILIMDFRNSRSNLNPAKMEELMSDPWIITATTLAVVILLTTILRRKSSSMKWPKGPKTLPIIGNMHLFGGTDLHVVLYNIAKVYGNVMTIWIGSWRPVIVISDIERAWEVLVNKSSDYSARDMPEITKLISSDWKTISTSDAGAFWTNLRKGLQNVALSPHNLASQFQFQESDIKKLIETIKEEAAVNNGIVKPLDHLKKAMVRLISRLVFGQDFDNDEYVEGMHHAIEELIRVSGYARLAEAFYYAKYLPSHKKAVRDVEEANRRVQKLVRPFLSLNPPTNTYLHFLRSQNYSEEVIIFAIFEAYLLGVDSTSSTTAWALAFLIREPNVQEKLYQELKNFTVKNGRDMLKVEDINKLPYLQATIKETMRMKPIAPLAIPHKACRDTSLKGSKIDKGTRVMVNIYALHHNEKIWKEPFKFMPERFLQTEGENGKAMEQSFLPFSAGMRICAGMELGKLQFNFALANLVNAFKWSCVADGVLPDMSDQLGFVLVMKTPLEARITSRC
conversion of scoulerine to the Ring A product nandinine (Ring A closure) [2]: > 95%

B6: EX60: CYP719 from Eschscholzia californica, BAG75114.1, SEQ ID NO: 339 (protein, listed as Eschscholzia californica)
chain: MEEMKFLMMNNPWVLTATFTTLLISIFLFVTRKTSNTEWPNGPKTLPIIGNMHLLGGTKALQVILHNLAKVYGGVMTIWIGSWRPVIIVSDIERAWEVLVNKSSDYSARELPEIIKYNAANFRTIATCDSGPHWSNLRKGLQNVALSPHNLAAQFQFQEKDITKMIQNLEVEAKNNNGIVQPLDHLKKATIRLISRLIFGQDFDEDTYVEKLHHTIDELIRMSGYAQLAEAFYYARYLPNHKKAVNHAAKTKQIVTHLMRPFLSLNPPTNSYLHFLQSQNYDEELIIFSIFEVYLLGVDSTSSTTAWALAYLVREPNVQETLYQELDNFAKQNDRKILKVEDINKLQYLQAVTKETMRMKPIAPLAIPHKASRDTTLMGKKVEKGTKVMVNLHALHHNENVFNDPYKFMPERFLKSYQGAKAKAMEQSYLPFSAGMRICGGMEVGKLQFGFALANLAYAFKWSCAVNGVLPDMSDELGFVLFMKTPLEARIVRRN
conversion of scoulerine to the Ring A product nandinine (Ring A closure) [2]: > 95%

B7: EX69: CYP719 from Mahonia aquifolium, SEQ ID NO: 348 (protein, listed as Mahonia aquifolium)
chain: MEFTVWVVSFNVLVVVAMSMFLLRTKSSSSTTKWPIGPKKLPIIGNLHLLGGDVLHVALAKLAKVHGGIMTIWIGSWRPVIVVSDIDKAWEVLVNKSSDYSARDMPEITKIASASWHTISSSDSGPFWQNLRKGLQNGALGPANISAQSQLQERDIKRMIGDLQKEAKINGGIVKPLDHIKKAAVRLLSRLIFGHTFDDDSFIESMHHEIEDLIRISGYARLAEAFSYAKYLPSHKLAVKEAYEVKHRVEQLVRPLLTSSPPANSYLNFLLSQDYSEEVITFCIFEIYLLGVDSTSSTTTWALSYLIHEQQVQEKLYQSIKGVTSDDDGLVKAEDLSKLQYLQAVMKETMRIKPIAPLAIPHKASKDTKLMGTKVAKGTRVMVNLYALHTKENIWSDPEKFKPERFLHGDEGVNVKAMEQCFLPFSAGMRICAGMELGKLQFSIALANLVKAFKWTSVVDGELPDMSEELSFVLLMKTPLEARIIPRDL
conversion of scoulerine to the Ring A product nandinine (Ring A closure) [2]: > 95%

B8: EX72: CYP719 from Nandina domestica, SEQ ID NO: 351 (protein, listed as Nandina domestica)
chain: MDPMSLWAAIAIVLVMTLLVLLQTRTKSLPSSSTQWPTGPKTLPIIGNLHQLEGDVFHVALAKLAKMHGDIMTIWIGSWRPVIVISDYDKAWEVLVNKSSDYSARDMPEITKIASAGWRTISLSSSGPFWHTLRKGLQNGPFGPLNVSAQILSQERDMRRMIRDMQEEADINGGIVKPLGHLKKATVGLLTRLIFGQNFDDDSFIESIHHETEELIRISGYARLAEAFSYAKYLPSHRRAVKESYECKHRVEELVKPLLSSNPPKNSYLNFLQSQDYPEEVIIFCIFEIYLLGVDSTSSTTTWALAFLIHEPAVQEKLYQEVKCITNGDGGLVKAGDLSKFQYLQAVMKETMRMKPIAPLAIPHTTSKDTTLMGTKVAKGTRIMVNLYALHHNPNIWSEPFKFMPERFLQEQFNGVGGDANVKAIEQSFLPFSAGMRICAGMDLGKLQFSFALANLVNAFKWTTVADGKFPDMNEELSFVLLMKTPLEARIVPRKP
conversion of scoulerine to the Ring A product nandinine (Ring A closure) [2]: > 95%
